Source: PubChem BioAssay AID1159584 (Peter MacCallum Cancer Centre, 2016)
The deposit covers about 18,000 reagents; shown is a part drawn at random. No sequences are given here. Not stated in the record: the amount of reagent, the time to read-out.

- Purpose: 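Genes whose loss is lethal only together with E-cadherin loss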 (primary screen)
- Cell system: human MCF10A breast epithelial cells, parental and CDH1-null
- Reagents: siRNA against human genes
- Measured: 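ATP luminescence (CellTiter-Glo) viability per line relative to mean mock wells over all plates, and the ratio of CDH1-null to parental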
- Reading the numbers: CDH1-null / parental viability ratio: higher = CDH1-null cells survive relatively better than parental; CDH1-null viability vs mock: higher = more viable CDH1-null cells; parental viability vs mock: higher = more viable parental cells

gene symbol | CDH1-null / parental viability ratio | CDH1-null viability vs mock (fraction of mock) | parental viability vs mock (fraction of mock)
PRKAG3 (protein kinase AMP-activated non-catalytic subunit gamma 3) | 1.25 | 0.94 | 0.75
PFDN4 (prefoldin subunit 4) | 1.06 | 0.9 | 0.85
MOBP (myelin associated oligodendrocyte basic protein) | 1.01 | 0.81 | 0.8
CIMAP2 (ciliary microtubule associated protein 2) | 0.87 | 0.66 | 0.76
C6orf58 (chromosome 6 open reading frame 58) | 0.92 | 0.79 | 0.86
NAP1L2 (nucleosome assembly protein 1 like 2) | 0.86 | 0.77 | 0.9
GNA12 (G protein subunit alpha 12) | 1.39 | 0.89 | 0.64
TCF7 (transcription factor 7) | 0.91 | 0.52 | 0.57
ZNF404 (zinc finger protein 404) | 0.78 | 0.72 | 0.92
EOLA1 (endothelium and lymphocyte associated ASCH domain 1) | 1 | 0.88 | 0.88
CHEK1 (checkpoint kinase 1) | 0.98 | 0.54 | 0.55
CDC20B (cell division cycle 20B) | 1.02 | 1.18 | 1.16
IDE (insulin degrading enzyme) | 1.1 | 0.66 | 0.6
ANGPTL6 (angiopoietin like 6) | 1.41 | 1 | 0.71
PRR13 (proline rich 13) | 0.81 | 0.62 | 0.77
RHPN2 (rhophilin Rho GTPase binding protein 2) | 0.9 | 0.53 | 0.59
FAM221B (family with sequence similarity 221 member B) | 1.51 | 0.71 | 0.47
TXNDC5 (thioredoxin domain containing 5) | 0.79 | 0.74 | 0.94
RANBP17 (RAN binding protein 17) | 1.18 | 1.2 | 1.02
GIMAP6 (GTPase, IMAP family member 6) | 0.92 | 0.84 | 0.91
ETF1 (eukaryotic translation termination factor 1) | 1 | 0.66 | 0.66
PCDHA13 (protocadherin alpha 13) | 1.11 | 0.4 | 0.36
CDH3 (cadherin 3) | 0.87 | 0.76 | 0.87
OR2L8 (olfactory receptor family 2 subfamily L member 8) | 1.73 | 0.52 | 0.3
F2RL1 (F2R like trypsin receptor 1) | 0.74 | 0.74 | 1
SPOCK3 | 1.51 | 0.8 | 0.53
TEAD3 (TEA domain transcription factor 3) | 1.38 | 0.94 | 0.68
DDX42 (DEAD-box helicase 42) | 1.15 | 0.78 | 0.68
MATN4 (matrilin 4) | 0.87 | 0.52 | 0.6
ZNF41 (zinc finger protein 41) | 1.53 | 0.66 | 0.43
GPR157 (G protein-coupled receptor 157) | 0.71 | 0.68 | 0.96
STAP2 (signal transducing adaptor family member 2) | 1.14 | 0.96 | 0.84
ARHGAP33 (Rho GTPase activating protein 33) | 0.98 | 0.62 | 0.63
TVP23C (trans-golgi network vesicle protein 23 homolog C) | 0.89 | 0.62 | 0.7
R3HDM1 (R3H domain containing 1) | 0.83 | 0.48 | 0.58
ZSCAN21 (zinc finger and SCAN domain containing 21) | 0.96 | 0.86 | 0.9
DDX47 (DEAD-box helicase 47) | 0.85 | 0.66 | 0.78
CBLIF (cobalamin binding intrinsic factor) | 1.16 | 1.09 | 0.94
OR6N2 (olfactory receptor family 6 subfamily N member 2) | 1.05 | 0.96 | 0.91
ZNF761 (zinc finger protein 761) | 1.33 | 0.64 | 0.48
KLHDC4 (kelch domain containing 4) | 0.92 | 1.08 | 1.17
KIT (KIT proto-oncogene, receptor tyrosine kinase) | 0.96 | 0.82 | 0.85
OPA3 (outer mitochondrial membrane lipid metabolism regulator OPA3) | 0.9 | 0.74 | 0.82
RPAP2 (RNA polymerase II associated protein 2) | 1.24 | 0.36 | 0.29
NLRX1 (NLR family member X1) | 1.03 | 0.62 | 0.6
MEX3D (mex-3 RNA binding family member D) | 0.94 | 0.89 | 0.95
